{"source": "PubChem BioAssay AID248", "about": "(DTP/NCI, 2004)", "test_system": "L1210 leukemia ip in BDF1 mice, survival T/C", "assay": "NCI In Vivo Anticancer Drug Screen. Data for tumor model L1210 Leukemia (intraperitoneal) in B6D2F1 (BDF1) mice", "conditions": "T/C endpoint: mean survival time, higher T/C = longer survival", "key": {"[1]": {"conditions": "dose: 200.0 mg/kg/injection, schedule: Q04DX003 (ip), vehicle: saline"}, "[2]": {"conditions": "dose: 400.0 mg/kg/injection, schedule: Q04DX003 (ip), vehicle: saline"}, "[3]": {"conditions": "dose: 100.0 mg/kg/injection, schedule: Q04DX002 (ip), vehicle: saline with Tween-80"}, "[4]": {"conditions": "dose: 200.0 mg/kg/injection, schedule: Q04DX002 (ip), vehicle: saline with Tween-80"}, "[5]": {"conditions": "dose: 400.0 mg/kg/injection, schedule: Q04DX002 (ip), vehicle: saline with Tween-80"}, "[6]": {"conditions": "dose: 400.0 mg/kg/injection, schedule: Q01DX001 (ip), vehicle: saline"}}, "note": "The list does not hold the whole screen: it gathers tests that were run many times, whatever their T/C, doses with no T/C, and many T/C values between a quarter and a half above the control. Other doses and runs of a compound stand elsewhere. T/C is the treated group as % of the vehicle group. Some doses have a count of surviving animals in place of a T/C: the source holds a T/C of zero for them, seemingly a mark for toxic or unscored doses. Some doses without a T/C left all or most animals alive at the check, yet need not have been tolerated: survival well below the control is almost never listed, so the zero probably covers shortened survival too. Counts of survivors are from the toxicity check (mostly the fifth day) where no day follows; animals may have died later. Schedules are NCI's codes, taken here to give the interval after Q, in days (D) or hours (H), and the number of doses after X. For survival time, this PubChem deposit counts one and a half times the control or more as active, and values a quarter to a half above the control carry no call in these data; other NCI protocols may use other cut-offs. Some entries hold several experiments; the values are given in rising order.", "data": [{"compound": "CCCCCCCCCOCCOCCOCCN", "values": [{"measurement": "survivor count", "setting": "dose: 50.0 mg/kg/injection, schedule: Q01DX009 (ip), vehicle: Klucel (hydroxypropylcellulose) (HPC)", "value": "0 of 6"}, {"measurement": "survivor count", "setting": "dose: 100.0 mg/kg/injection, schedule: Q01DX009 (ip), vehicle: Klucel (hydroxypropylcellulose) (HPC)", "value": "0 of 6"}, {"measurement": "survivor count", "setting": "dose: 100.0 mg/kg/injection, schedule: Q04DX003 (ip), vehicle: saline", "value": "3 of 6"}, {"measurement": "survivor count", "setting": "dose: 200.0 mg/kg/injection, schedule: Q01DX009 (ip), vehicle: Klucel (hydroxypropylcellulose) (HPC)", "value": "0 of 6"}, {"measurement": "survivor count", "setting": "[1]", "value": "0 of 6"}, {"measurement": "survivor count", "setting": "[2]", "value": "0 of 6"}]}, {"compound": "S=C=Nc1ccc(Cl)c2ccccc12", "values": [{"measurement": "survivor count", "setting": "[3]", "value": "3 of 3"}, {"measurement": "survivor count", "setting": "[4]", "value": "1 of 3"}, {"measurement": "survivor count", "setting": "[5]", "value": "1 of 3"}]}, {"compound": "S=C(Nc1ccc(Cl)cc1)NC1CC2C=CC1C2", "note": "(stereo not given)", "values": [{"measurement": "survivor count", "setting": "[5]", "value": "1 of 3"}]}, {"compound": "CS/C(N)=N\\NC(N)=S", "values": [{"measurement": "survivor count", "setting": "dose: 400.0 mg/kg/injection, schedule: Q01DX001 (ip), vehicle: Klucel (hydroxypropylcellulose) (HPC)", "value": "6 of 6"}]}, {"compound": "CS(=O)(=O)OCCN(CCOS(C)(=O)=O)c1ccc(C=Nc2ccc(-c3csc(Cc4ccccc4)n3)cc2)cc1", "values": [{"measurement": "T/C", "setting": "dose: 45.0 mg/kg/injection, schedule: Q04DX003 (ip), vehicle: Klucel (hydroxypropylcellulose) (HPC)", "value": "141 % of control"}, {"measurement": "T/C", "setting": "dose: 100.0 mg/kg/injection, schedule: Q04DX003 (ip), vehicle: Klucel (hydroxypropylcellulose) (HPC)", "value": "132 and 148 % of control"}, {"measurement": "survivor count", "setting": "dose: 200.0 mg/kg/injection, schedule: Q04DX003 (ip), vehicle: Klucel (hydroxypropylcellulose) (HPC)", "value": "6 of 6"}, {"measurement": "survivor count", "setting": "dose: 400.0 mg/kg/injection, schedule: Q04DX003 (ip), vehicle: Klucel (hydroxypropylcellulose) (HPC)", "value": "3 of 6"}]}, {"compound": "N#Cc1ccc[nH]1", "values": [{"measurement": "T/C", "setting": "dose: 400.0 mg/kg/injection, schedule: Q01DX001 (sc), vehicle: carboxymethylcellulose (CMC)", "value": "134 % of control"}, {"measurement": "survivor count", "setting": "dose: 600.0 mg/kg/injection, schedule: Q01DX001 (ip), vehicle: carboxymethylcellulose (CMC)", "value": "0 of 4"}]}, {"compound": "O=C1NC(CN2CCCC(O)C2)C(=O)NC1CN1CCCC(O)C1", "note": "(stereo not given) (tested in a mixture with another compound)", "values": [{"measurement": "survivor count", "setting": "dose: 300.0 mg/kg/injection, schedule: Q01DX009 (ip), vehicle: water", "value": "2 of 3"}]}, {"compound": "C=CCN1C(=O)C=CC1=O", "values": [{"measurement": "survivor count", "setting": "dose: 12.0 mg/kg/injection, schedule: Q04DX002 (ip), vehicle: Klucel (hydroxypropylcellulose) (HPC)", "value": "0 of 3"}, {"measurement": "survivor count", "setting": "dose: 25.0 mg/kg/injection, schedule: Q04DX002 (ip), vehicle: Klucel (hydroxypropylcellulose) (HPC)", "value": "0 of 3"}, {"measurement": "survivor count", "setting": "dose: 50.0 mg/kg/injection, schedule: Q04DX002 (ip), vehicle: Klucel (hydroxypropylcellulose) (HPC)", "value": "0 of 3"}, {"measurement": "survivor count", "setting": "dose: 100.0 mg/kg/injection, schedule: Q04DX002 (ip), vehicle: Klucel (hydroxypropylcellulose) (HPC)", "value": "0 of 3"}, {"measurement": "survivor count", "setting": "dose: 200.0 mg/kg/injection, schedule: Q04DX002 (ip), vehicle: Klucel (hydroxypropylcellulose) (HPC)", "value": "0 of 3"}, {"measurement": "survivor count", "setting": "dose: 400.0 mg/kg/injection, schedule: Q04DX002 (ip), vehicle: Klucel (hydroxypropylcellulose) (HPC)", "value": "0 of 3"}]}, {"compound": "N#CC1=C(C#N)C(=O)C(Cl)=C(Cl)C1=O", "values": [{"measurement": "survivor count", "setting": "dose: 25.0 mg/kg/injection, schedule: Q01DX009 (ip), vehicle: saline", "value": "0 of 6"}, {"measurement": "survivor count", "setting": "dose: 50.0 mg/kg/injection, schedule: Q04DX003 (ip), vehicle: saline sonified", "value": "0 of 6"}]}, {"compound": "Cc1cccc(C)c1NC(=O)NS(=O)(=O)c1ccccc1", "values": [{"measurement": "survivor count", "setting": "dose: 400.0 mg/kg/injection, schedule: Q04DX003 (ip), vehicle: acetone", "value": "2 of 6"}]}, {"compound": "CC1CC2=C(CCCO2)C(C)C1", "note": "(stereo not given)", "values": [{"measurement": "survivor count", "setting": "dose: 100.0 mg/kg/injection, schedule: Q01DX001 (ip), vehicle: saline", "value": "4 of 4"}, {"measurement": "survivor count", "setting": "[6]", "value": "4 of 4"}]}, {"compound": "CCC(=O)NCC1(c2ccccc2)CCN(CC2COc3ccccc3O2)CC1", "note": "(stereo not given)", "values": [{"measurement": "survivor count", "setting": "[1]", "value": "0 of 6"}, {"measurement": "survivor count", "setting": "[2]", "value": "0 of 6"}]}, {"compound": "NNS(=O)(=O)Cc1ccccc1", "values": [{"measurement": "survivor count", "setting": "[6]", "value": "3 of 6"}]}, {"compound": "Cc1cccc(C)c1N=C(N)NN", "values": [{"measurement": "survivor count", "setting": "[1]", "value": "1 of 6"}, {"measurement": "survivor count", "setting": "[6]", "value": "0 of 6"}]}, {"compound": "CC1(C)OC2COC(c3[nH]nc4c(=O)[nH]c(=O)[nH]c34)C2O1", "note": "(stereo not given)", "values": [{"measurement": "T/C", "setting": "dose: 50.0 mg/kg/injection, schedule: Q01DX009 (ip), vehicle: saline", "value": "131 % of control"}, {"measurement": "survivor count", "setting": "dose: 200.0 mg/kg/injection, schedule: Q01DX005 (ip), vehicle: saline", "value": "1 of 6"}]}, {"compound": "CC/C=C(\\C)CC(C)O", "note": "(stereo not given)", "values": [{"measurement": "survivor count", "setting": "[3]", "value": "3 of 3"}]}, {"compound": "O=[N+]([O-])c1ccc(N/N=C/C#Cc2ccccc2)c([N+](=O)[O-])c1", "values": [{"measurement": "survivor count", "setting": "[3]", "value": "3 of 3"}, {"measurement": "survivor count", "setting": "[4]", "value": "3 of 3"}]}, {"compound": "O=C(Nc1ncccc1[N+](=O)[O-])C(Cl)(Cl)Cl", "values": [{"measurement": "survivor count", "setting": "dose: 400.0 mg/kg/injection, schedule: Q01DX009 (ip), vehicle: Klucel (hydroxypropylcellulose) (HPC)", "value": "2 of 3"}]}]}
